This is one part of the list.
compound: c1cn2cc(-c3ccc4cn[nH]c4c3)nc(Nc3ccc(N4CCOCC4)cc3)c2n1 [entospletinib]; experiment: log2 fold change, soluble protein after heating vs DMSO (PISA); higher = thermal stabilisation; K562 cells, 10 uM, 30 min; active = over 0.2 and 3.5 SD of the protein, either way, in both replicates (recomputed)
How it was run: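 Thermal stability values are relative to control samples and come from duplicates. They are expressed as log2 fold changes. For measurement, K562 cells (2×10^6 cells/mL) received 10 μM compound for 30 min, and aliquots were heated for 3 min over 48°C-58°C, pooled, and extracted at 4°C in PBS with 0.5% NP-40. Soluble protein, the supernatant after 21,000xg for 90 min, was quantified by TMTpro 16plex LC-MS/MS with equalised channel sums.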

Amino acid sequences for entries named in this document (tags omitted). A change or cut given only in a name is not applied to a line headed by its entry.
UniProt Q9H832: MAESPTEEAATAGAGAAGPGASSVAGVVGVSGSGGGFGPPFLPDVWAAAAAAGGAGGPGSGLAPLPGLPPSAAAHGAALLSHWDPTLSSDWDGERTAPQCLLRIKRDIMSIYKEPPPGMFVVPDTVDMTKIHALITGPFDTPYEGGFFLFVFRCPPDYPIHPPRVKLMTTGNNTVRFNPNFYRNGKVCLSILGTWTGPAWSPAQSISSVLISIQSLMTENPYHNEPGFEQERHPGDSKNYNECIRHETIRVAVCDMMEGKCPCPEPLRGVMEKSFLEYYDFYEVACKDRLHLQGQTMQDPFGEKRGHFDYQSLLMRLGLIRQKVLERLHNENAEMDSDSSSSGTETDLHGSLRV
UniProt Q9BTX7: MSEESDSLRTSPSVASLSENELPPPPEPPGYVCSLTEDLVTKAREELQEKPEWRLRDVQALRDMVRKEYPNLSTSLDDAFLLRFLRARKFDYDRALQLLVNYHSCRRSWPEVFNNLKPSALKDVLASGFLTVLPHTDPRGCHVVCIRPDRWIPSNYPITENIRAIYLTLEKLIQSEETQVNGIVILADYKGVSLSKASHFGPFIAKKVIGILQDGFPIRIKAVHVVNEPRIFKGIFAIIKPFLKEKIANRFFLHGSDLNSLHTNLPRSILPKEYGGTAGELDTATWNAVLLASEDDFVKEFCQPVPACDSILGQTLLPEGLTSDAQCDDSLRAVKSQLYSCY
UniProt P68371, whole entry, looked up: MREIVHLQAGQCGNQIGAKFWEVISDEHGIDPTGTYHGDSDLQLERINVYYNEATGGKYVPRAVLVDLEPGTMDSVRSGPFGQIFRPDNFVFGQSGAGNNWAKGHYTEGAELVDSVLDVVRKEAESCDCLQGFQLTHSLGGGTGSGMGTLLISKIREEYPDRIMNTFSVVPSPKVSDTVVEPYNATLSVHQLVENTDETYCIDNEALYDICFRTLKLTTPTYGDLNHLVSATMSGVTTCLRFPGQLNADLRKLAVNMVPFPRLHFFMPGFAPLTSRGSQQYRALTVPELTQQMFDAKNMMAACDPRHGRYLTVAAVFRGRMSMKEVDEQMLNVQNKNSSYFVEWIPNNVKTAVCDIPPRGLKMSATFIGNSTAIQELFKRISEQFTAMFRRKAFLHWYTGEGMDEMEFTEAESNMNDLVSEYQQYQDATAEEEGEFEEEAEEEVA
UniProt Q96RT8, whole entry, looked up: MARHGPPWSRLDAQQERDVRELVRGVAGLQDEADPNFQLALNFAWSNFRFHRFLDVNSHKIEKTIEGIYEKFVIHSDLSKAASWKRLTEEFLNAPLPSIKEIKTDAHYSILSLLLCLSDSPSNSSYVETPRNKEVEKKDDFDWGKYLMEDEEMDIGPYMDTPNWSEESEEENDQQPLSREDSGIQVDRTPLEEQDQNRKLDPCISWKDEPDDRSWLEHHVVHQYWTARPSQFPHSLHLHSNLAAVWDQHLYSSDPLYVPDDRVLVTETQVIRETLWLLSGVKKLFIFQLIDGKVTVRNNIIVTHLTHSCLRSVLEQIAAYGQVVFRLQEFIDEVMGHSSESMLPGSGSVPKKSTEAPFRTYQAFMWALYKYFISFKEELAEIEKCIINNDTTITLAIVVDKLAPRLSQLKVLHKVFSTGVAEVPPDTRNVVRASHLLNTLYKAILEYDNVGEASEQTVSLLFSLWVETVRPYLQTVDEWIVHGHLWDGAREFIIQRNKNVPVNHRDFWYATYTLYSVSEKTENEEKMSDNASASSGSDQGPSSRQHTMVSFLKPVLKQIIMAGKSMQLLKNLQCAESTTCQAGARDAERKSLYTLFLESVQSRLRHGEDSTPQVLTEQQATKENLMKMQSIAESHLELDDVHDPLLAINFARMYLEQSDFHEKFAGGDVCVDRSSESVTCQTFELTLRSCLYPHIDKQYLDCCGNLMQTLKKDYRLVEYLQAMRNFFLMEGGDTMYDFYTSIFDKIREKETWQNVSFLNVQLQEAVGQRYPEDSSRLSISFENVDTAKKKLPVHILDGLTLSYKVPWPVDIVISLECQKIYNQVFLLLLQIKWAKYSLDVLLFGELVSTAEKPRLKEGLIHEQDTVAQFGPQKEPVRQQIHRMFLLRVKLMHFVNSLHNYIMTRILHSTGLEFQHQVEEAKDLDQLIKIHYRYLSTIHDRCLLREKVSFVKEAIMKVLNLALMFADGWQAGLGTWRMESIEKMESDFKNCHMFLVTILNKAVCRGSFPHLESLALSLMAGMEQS
UniProt P04818: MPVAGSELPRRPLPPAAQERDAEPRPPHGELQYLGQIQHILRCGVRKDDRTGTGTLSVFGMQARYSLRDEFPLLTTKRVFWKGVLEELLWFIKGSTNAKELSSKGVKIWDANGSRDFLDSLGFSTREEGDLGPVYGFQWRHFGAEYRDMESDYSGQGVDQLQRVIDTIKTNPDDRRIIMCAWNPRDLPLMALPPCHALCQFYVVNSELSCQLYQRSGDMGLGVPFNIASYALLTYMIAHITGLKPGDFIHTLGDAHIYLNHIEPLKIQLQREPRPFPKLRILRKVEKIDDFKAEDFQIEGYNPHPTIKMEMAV
UniProt Q9GZZ9, whole entry, looked up: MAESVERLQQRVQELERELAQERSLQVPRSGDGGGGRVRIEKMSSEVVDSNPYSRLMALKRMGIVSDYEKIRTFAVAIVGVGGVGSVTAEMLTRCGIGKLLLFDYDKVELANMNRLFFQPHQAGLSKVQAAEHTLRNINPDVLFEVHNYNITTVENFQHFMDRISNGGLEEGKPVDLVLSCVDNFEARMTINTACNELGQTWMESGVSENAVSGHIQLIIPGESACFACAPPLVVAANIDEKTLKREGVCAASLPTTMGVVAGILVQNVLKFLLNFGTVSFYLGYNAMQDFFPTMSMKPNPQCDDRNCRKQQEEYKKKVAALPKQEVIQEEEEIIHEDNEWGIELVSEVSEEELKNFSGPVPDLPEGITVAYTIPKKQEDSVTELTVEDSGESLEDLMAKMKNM
UniProt O95881: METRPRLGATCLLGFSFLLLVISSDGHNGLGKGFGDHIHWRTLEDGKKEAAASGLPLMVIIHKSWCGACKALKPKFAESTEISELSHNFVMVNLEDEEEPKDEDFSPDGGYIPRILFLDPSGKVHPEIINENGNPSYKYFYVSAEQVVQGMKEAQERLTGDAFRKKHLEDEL
UniProt Q9GZX9: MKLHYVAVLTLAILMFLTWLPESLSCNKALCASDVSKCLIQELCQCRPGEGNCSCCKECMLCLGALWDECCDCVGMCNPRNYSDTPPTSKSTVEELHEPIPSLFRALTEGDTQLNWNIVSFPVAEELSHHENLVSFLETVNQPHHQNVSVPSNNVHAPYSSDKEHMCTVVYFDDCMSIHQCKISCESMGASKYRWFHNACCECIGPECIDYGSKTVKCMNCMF
UniProt O15042: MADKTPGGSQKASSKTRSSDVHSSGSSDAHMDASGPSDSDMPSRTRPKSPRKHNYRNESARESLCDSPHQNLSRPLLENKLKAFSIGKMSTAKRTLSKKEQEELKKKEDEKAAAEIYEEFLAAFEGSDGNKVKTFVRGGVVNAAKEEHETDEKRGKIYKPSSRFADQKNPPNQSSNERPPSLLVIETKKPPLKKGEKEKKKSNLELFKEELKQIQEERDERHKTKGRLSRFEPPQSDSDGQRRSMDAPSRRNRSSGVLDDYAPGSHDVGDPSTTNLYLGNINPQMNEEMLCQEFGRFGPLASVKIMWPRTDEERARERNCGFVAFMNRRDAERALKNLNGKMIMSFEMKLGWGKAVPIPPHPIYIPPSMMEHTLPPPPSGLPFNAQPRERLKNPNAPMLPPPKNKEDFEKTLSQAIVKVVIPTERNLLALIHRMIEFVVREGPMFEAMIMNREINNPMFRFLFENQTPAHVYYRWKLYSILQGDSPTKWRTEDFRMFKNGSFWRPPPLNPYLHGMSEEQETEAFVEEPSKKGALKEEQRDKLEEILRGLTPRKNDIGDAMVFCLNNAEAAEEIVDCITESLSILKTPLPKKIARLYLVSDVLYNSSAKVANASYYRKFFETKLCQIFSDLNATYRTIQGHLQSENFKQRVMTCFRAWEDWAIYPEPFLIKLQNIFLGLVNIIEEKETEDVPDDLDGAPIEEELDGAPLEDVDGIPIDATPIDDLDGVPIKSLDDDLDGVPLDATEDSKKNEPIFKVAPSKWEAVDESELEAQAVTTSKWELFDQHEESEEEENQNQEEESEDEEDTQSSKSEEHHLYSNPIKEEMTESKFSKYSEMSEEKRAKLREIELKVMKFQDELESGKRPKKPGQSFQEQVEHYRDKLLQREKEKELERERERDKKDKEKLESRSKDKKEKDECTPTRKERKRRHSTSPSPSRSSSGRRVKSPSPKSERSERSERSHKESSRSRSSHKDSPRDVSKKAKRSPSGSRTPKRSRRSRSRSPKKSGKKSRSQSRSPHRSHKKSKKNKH
UniProt Q7Z6J9: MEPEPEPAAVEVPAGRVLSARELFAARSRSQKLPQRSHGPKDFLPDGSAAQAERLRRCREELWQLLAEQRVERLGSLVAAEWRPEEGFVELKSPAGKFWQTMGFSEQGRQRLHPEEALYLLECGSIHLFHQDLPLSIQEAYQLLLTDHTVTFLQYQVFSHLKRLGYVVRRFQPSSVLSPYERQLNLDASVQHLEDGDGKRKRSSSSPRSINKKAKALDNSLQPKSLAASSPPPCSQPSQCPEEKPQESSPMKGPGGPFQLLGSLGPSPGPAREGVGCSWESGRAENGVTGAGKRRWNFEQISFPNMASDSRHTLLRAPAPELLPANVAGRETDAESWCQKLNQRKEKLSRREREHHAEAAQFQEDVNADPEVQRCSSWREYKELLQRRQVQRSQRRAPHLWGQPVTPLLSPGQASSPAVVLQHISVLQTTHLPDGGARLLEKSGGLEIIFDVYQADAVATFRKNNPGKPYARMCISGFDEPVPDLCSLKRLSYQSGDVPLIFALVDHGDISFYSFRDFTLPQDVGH
UniProt P61088: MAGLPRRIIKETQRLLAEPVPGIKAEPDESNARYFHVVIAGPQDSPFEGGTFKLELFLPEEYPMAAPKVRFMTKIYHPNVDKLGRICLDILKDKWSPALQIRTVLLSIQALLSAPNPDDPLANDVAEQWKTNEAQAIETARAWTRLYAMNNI
UniProt Q8NG11: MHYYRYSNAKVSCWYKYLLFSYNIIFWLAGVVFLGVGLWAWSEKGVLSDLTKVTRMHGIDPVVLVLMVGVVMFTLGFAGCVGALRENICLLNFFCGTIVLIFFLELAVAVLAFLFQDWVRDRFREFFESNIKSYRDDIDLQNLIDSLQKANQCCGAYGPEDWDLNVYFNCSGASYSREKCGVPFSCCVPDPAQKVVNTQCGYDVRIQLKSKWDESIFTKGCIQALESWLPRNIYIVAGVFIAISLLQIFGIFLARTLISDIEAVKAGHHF
UniProt P04350, whole entry, looked up: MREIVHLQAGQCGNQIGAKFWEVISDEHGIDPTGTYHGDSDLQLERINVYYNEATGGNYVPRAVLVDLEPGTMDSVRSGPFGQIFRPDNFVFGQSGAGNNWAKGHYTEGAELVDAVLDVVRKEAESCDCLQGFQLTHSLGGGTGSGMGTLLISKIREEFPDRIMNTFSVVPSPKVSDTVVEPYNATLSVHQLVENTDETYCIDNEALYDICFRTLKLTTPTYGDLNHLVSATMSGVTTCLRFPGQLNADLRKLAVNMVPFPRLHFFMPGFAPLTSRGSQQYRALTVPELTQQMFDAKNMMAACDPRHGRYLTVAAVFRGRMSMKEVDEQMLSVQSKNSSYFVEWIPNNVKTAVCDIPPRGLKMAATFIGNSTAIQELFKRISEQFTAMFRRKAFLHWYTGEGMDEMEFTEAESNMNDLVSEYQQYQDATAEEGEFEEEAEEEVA
UniProt Q9BSJ2, whole entry, looked up: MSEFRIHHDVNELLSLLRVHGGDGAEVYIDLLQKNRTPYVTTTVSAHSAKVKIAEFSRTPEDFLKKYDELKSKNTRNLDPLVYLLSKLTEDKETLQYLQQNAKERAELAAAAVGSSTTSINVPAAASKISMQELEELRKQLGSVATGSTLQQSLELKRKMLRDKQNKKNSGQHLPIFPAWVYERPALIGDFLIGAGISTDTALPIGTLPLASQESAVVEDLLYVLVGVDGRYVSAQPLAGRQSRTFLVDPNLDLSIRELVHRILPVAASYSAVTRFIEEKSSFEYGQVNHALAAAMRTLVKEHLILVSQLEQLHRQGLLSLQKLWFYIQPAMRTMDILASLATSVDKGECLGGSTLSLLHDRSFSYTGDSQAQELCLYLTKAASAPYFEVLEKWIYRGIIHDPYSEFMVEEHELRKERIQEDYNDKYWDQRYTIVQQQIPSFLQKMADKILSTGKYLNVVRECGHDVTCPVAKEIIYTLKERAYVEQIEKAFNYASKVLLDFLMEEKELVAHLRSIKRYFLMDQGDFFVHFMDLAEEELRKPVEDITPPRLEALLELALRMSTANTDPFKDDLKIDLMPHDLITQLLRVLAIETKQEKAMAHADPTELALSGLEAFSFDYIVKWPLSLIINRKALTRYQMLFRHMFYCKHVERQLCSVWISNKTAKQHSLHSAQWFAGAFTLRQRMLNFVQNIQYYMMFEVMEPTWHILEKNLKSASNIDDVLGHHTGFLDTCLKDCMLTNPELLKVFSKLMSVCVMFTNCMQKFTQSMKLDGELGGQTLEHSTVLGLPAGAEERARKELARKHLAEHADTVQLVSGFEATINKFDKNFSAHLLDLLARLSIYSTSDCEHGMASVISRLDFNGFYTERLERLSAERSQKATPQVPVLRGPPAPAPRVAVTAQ

log2 fold change, inactive:
UBE2Z (UniProt Q9H832) -0.013
TTC19 (UniProt Q6DKK2) -0.021
TTPAL (UniProt Q9BTX7) 0.035
TUBB4B (UniProt P68371) 0.004
TUBGCP5 (UniProt Q96RT8) 0.134
TYMS (UniProt P04818) 0.023
UBA5 (UniProt Q9GZZ9) 0.038
UBE2I (UniProt P63279) 0.066
TXNDC12 (UniProt O95881) 0.05
TUFM (UniProt P49411) -0.008
UAP1 (UniProt Q16222) 0.026
TSR2 (UniProt Q969E8) -0.032
TWSG1 (UniProt Q9GZX9) -0.035
UBE2R2 (UniProt Q712K3) 0.015
U2SURP (UniProt O15042) -0.041
TSEN54 (UniProt Q7Z6J9) -0.082
UBE2N (UniProt P61088) -0.02
TSPAN14 (UniProt Q8NG11) -0.037
TUBB4A (UniProt P04350) 0.007
TUBGCP2 isoform 4 (UniProt Q9BSJ2) 0.126
UBE2O (UniProt Q9C0C9) -0.018
TUBG1 (UniProt P23258) 0.02
TUBB4A (UniProt M0QYM7) -0.004

4 consecutive entries already listed:
log2 fold change, inactive:
TUBB4B (UniProt P68371) 0.004
TUBGCP5 (UniProt Q96RT8) 0.134
TYMS (UniProt P04818) 0.023
UBA5 (UniProt Q9GZZ9) 0.038
